Measured values taken from PubChem BioAssay AID588590 (National Center for Advancing Translational Sciences (NCATS), 2011).
Out of some 390,000 compounds screened, about 4,000 (1%) were called active. This list was built around the results that the source calls inconclusive (neither active nor inactive); the mix of calls is not that of the screen. Calls follow the shape of the dose curve; as a rule, active = well fitted inhibition curve with a large enough effect; inconclusive = small, poorly fitted or top-dose-only effect, or another doubt; inactive = no such curve, though single readings can be large or run the other way. Where the call is inconclusive, the potency comes from a doubtful curve fit.

Chains of the proteins cited; added tags and fusions are not shown. Lines headed by an entry give the natural chain unless they say otherwise; changes in a name come on top.
UniProt Q9UNA4: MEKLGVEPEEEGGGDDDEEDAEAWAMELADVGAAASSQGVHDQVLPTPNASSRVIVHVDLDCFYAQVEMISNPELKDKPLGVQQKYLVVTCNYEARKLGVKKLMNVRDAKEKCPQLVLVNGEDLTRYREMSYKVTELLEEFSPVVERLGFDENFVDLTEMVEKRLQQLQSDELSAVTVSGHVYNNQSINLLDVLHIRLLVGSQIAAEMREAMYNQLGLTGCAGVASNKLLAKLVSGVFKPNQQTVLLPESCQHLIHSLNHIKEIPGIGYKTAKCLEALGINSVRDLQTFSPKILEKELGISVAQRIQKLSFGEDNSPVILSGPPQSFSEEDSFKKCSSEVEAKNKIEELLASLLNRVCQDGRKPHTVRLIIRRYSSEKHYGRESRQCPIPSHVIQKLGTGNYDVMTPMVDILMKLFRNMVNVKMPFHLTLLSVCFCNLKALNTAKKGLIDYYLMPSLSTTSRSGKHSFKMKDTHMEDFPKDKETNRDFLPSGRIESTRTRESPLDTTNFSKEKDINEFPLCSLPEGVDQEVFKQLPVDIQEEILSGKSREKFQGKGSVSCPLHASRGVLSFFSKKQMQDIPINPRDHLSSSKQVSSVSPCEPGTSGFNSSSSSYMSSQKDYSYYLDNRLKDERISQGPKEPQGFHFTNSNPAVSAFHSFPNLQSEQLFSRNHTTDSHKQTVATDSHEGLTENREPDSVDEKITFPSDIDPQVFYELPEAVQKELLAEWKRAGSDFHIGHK

molecular target: DNA polymerase iota (Homo sapiens) (UniProt Q9UNA4); assay: qHTS for Inhibitors of Polymerase Iota; conditions: Pol iota fluorescent replication assay, 10 min; series mostly up to 115 µM; activity, negative = inhibition: at the top concentration
Outline: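 Pol iota at 10 nM preincubated 15 min with compounds at room temperature; reaction started with fluorescent substrate, 50 nM final. Fluorescence read kinetically at 0 and 10 min; buffer-only wells as negative control.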
Potency is read from the fitted curve at half-maximal effect.

CC1=C(C(=O)OCC2CCCO2)C(c2ccccc2)NC(=O)N1 (stereo not drawn) was tested. Which Potency did it give?
The Potency was inconclusive: 89.1 µM [inhibitor, partial curve, poor fit].

With COc1cc(/C=C(\C#N)c2nc3ccccc3[nH]2)cc(OC)c1O as the molecule, how does the Potency read?
Its Potency is inconclusive: 56.2 µM [inhibitor, partial curve, poor fit].

Which Potency does the source give for O=C(CCCl)Nc1nc2c(s1)CCc1ccccc1-2 here?
The Potency was inconclusive: 3.98 µM [inhibitor, full curve, poor fit].

Which Potency does the source give for CCCCCC(=O)NC(Nc1ccc(S(N)(=O)=O)cc1)C(Cl)(Cl)Cl (stereo not drawn) here?
Its Potency is inconclusive: 89.1 µM [inhibitor, single point].

With CCCN1CNc2c(c(=O)[nH]c(=S)n2CCc2c(C)cccc2C)C1 as the molecule, how does the “activity, negative = inhibition” value read?
Its value is inactive: -1.08%.

For CCOc1ccc(CCNC(=O)Cn2nc(CC)n3c(cc4ccccc43)c2=O)cc1, which “activity, negative = inhibition” value is on record?
The value was inactive: 40%.

Cc1cc(N2C(=O)C(O)=C(C(=O)c3ccco3)C2c2ccc(O)cc2)no1 (stereo not drawn) was tested. Which Potency did it give?
The Potency was inconclusive: 35.5 µM [inhibitor, partial curve, poor fit].

CCOC(=O)c1c(N)sc(C(O)(C(F)(F)F)C(F)(F)F)c1-c1ccc(Cl)cc1 was tested. Which Potency did it give?
Its Potency is inconclusive: 20 µM [inhibitor, single point].

For CN(C)S(=O)(=O)c1cccc(-c2nn(-c3ccccc3)cc2/C=C(/C#N)C(=O)NCc2ccco2)c1, which Potency is on record?
Its Potency is inconclusive: 89.1 µM [inhibitor, single point].

Which Potency does the source give for O=C(CN1C(=O)/C(=C\c2ccccc2F)SC1=S)Nc1nc2ccccc2s1 here?
Its Potency is inconclusive: 22.4 µM [inhibitor, partial curve, poor fit].

With Fc1ccc(-c2noc3ncnc(NCc4ccc(Cl)cc4)c23)cc1 as the molecule, how does the “activity, negative = inhibition” value read?
Its value is inactive: 7.84%.

N#C/C(=C\c1ccc(OCc2ccc(Br)cc2)cc1)C(=O)Nc1cccc(C(=O)O)c1 was tested. Which “activity, negative = inhibition” value did it give?
Its value is inactive: 115%.

For CCCCN(C(=O)C1CC(=O)N(c2ccc(C)cc2)C1)c1c(N)n(CCC)c(=O)[nH]c1=O (stereo not drawn), which Potency is on record?
Its Potency is inconclusive: 35.5 µM [inhibitor, full curve].

For CCOC(=O)c1cc2c(=O)n3ccccc3nc2n(Cc2ccco2)c1=NC(=O)c1cccc(OC)c1, which “activity, negative = inhibition” value is on record?
Its value is inactive: 23.5%.

Which Potency does the source give for Cc1cc(C)cc(NC(=O)Cn2nnc(C(=O)NCc3ccc(F)cc3)c2N)c1 here?
Its Potency is inconclusive: 39.8 µM [inhibitor, partial curve, poor fit].

Which Potency does the source give for CS(=O)(=O)c1ccc2nc(NC(=O)c3ccc(Cl)nc3)sc2c1 here?
The Potency was inconclusive: 79.4 µM [inhibitor, single point].

Which Potency does the source give for CC(=O)NCCCNC(=S)NCCCN(Cc1ccc(Cl)cc1)c1ccc(Br)cn1 here?
The Potency was inconclusive: 39.8 µM [inhibitor, partial curve, poor fit].

CC(C)c1ccc(NC(=O)COc2nnc(-c3cccs3)c(-c3cccs3)n2)cc1 was tested. Which Potency did it give?
The Potency was inconclusive: 25.1 µM [inhibitor, partial curve, poor fit].

With C=CCN1C(=O)CC(C(=O)NC)SC1=Nc1ccc(C(=O)OCC)cc1 (stereo not drawn) as the molecule, how does the Potency read?
The Potency was inconclusive: 25.1 µM [inhibitor, single point].

With Cc1csc(N2CCN(c3cc4nc(-c5ccncc5)[nH]c4cc3Cl)CC2)n1 as the molecule, how does the Potency read?
The Potency was inconclusive: 11.2 µM [inhibitor, full curve, poor fit].

For CCOc1ccccc1OCCCn1c(-c2ccc(Cl)cc2)nc2ccccc2c1=O, which Potency is on record?
The Potency was inconclusive: 100 µM [inhibitor, single point].

COC(=O)c1ccccc1NC(=O)c1cc2sccc2n1C was tested. Which Potency did it give?
Its Potency is inconclusive: 25.1 µM [inhibitor, full curve, poor fit].

For COc1ccc(CCn2c(NN=C(C)C)nc3c2c(=O)[nH]c(=O)n3C)cc1, which Potency is on record?
The Potency was inconclusive: 2 µM [inhibitor, full curve, poor fit].

How did the Potency turn out when CN(C)c1ccc(N2CN=C3SCC(=O)N3C2)cc1 was run?
The Potency was inconclusive: 12.6 µM [inhibitor, partial curve].

Which Potency does the source give for Cc1ccc2oc(-c3ccc(NC(=O)COc4ccccc4)cc3O)nc2c1 here?
The Potency was active: 89.1 µM.

Cc1ccc(OC(=O)c2ccc3snnc3c2)cc1 was tested. Which Potency did it give?
Its Potency is inconclusive: 50.1 µM [inhibitor, partial curve].

With CSc1nc(-c2ccco2)nn1C(=O)c1cccs1 as the molecule, how does the Potency read?
Its Potency is inconclusive: 25.1 µM [inhibitor, single point].

With C=CCn1c(SCC(=O)NCCCC(=O)OCC)nc2scc(-c3ccco3)c2c1=O as the molecule, how does the Potency read?
Its Potency is inconclusive: 39.8 µM [inhibitor, single point].

Which Potency does the source give for CCN1C(=O)[C@H]2[C@H]3CN=C(SCc4ccc(Cl)cc4)N3[C@@](CC)(C(=O)OC)[C@H]2C1=O here?
Its Potency is inconclusive: 2.82 µM [inhibitor, full curve, poor fit].

With COCCCNC(=O)c1cc(C(=O)c2c(-c3c(Cl)cccc3Cl)noc2C)c[nH]1 as the molecule, how does the “activity, negative = inhibition” value read?
Its value is inactive: 13.2%.

How did the Potency turn out when O=C(CC(Nc1ccc(Cl)cc1)C(=O)O)c1ccccc1 (stereo not drawn) was run?
Its Potency is inconclusive: 39.8 µM [inhibitor, partial curve, poor fit].

O=C(C1Cc2ccccc2O1)N1CCCCC1 (stereo not drawn) was tested. Which Potency did it give?
Its Potency is inconclusive: 56.2 µM [inhibitor, single point].

How did the Potency turn out when COc1cc2c(cc1NC(=O)CSc1nc3ccccc3[nH]1)oc1ccccc12 was run?
The Potency was active: 44.7 µM.

How did the Potency turn out when CN1CCN(C(CNS(=O)(=O)c2ccc(F)cc2)c2cccnc2)CC1 (stereo not drawn) was run?
The Potency was inconclusive: 25.1 µM [inhibitor, single point].

How did the Potency turn out when N#Cc1ccc(/C=C/C(=O)c2ccccc2)cc1 was run?
The Potency was inconclusive: 17.8 µM [inhibitor, partial curve, poor fit].

With O=C(/C=C/c1ccccc1)NCCc1ccccc1 as the molecule, how does the Potency read?
The Potency was inconclusive: 56.2 µM [inhibitor, partial curve, poor fit].

Which Potency does the source give for O=C1OC(NC(=O)c2ccccc2)C(n2cc(CO)nn2)=C1Cl (stereo not drawn) here?
The Potency was inconclusive: 20 µM [inhibitor, partial curve, poor fit].

Which “activity, negative = inhibition” value does the source give for CC(C)(C)OC(=O)NCCC(=O)N/N=C/c1cccc2cccnc12 here?
The value was inactive: 25.4%.

With C/C(N)=C(/C#N)C(=O)CSc1nnc(Cc2ccccc2F)n1N as the molecule, how does the Potency read?
Its Potency is inconclusive: 56.2 µM [inhibitor, partial curve, poor fit].

For COC(=O)c1c(NC(=O)CCCOc2cccc(C)c2)sc2c1C(C(=O)OC)CC2 (stereo not drawn), which Potency is on record?
Its Potency is inconclusive: 22.4 µM [inhibitor, partial curve].

For Cc1ccc(/C=C(/NC(=O)c2ccccc2)C(=O)NCCc2c[nH]c3ccccc23)o1, which Potency is on record?
The Potency was inconclusive: 22.4 µM [inhibitor, partial curve, poor fit].

CCN(CC)c1ccc(C(=C2C=CC(=[N+](CC)CC)C=C2)c2ccc(S(=O)(=O)O)cc2S(=O)(=O)[O-])cc1 was tested. Which Potency did it give?
The Potency was inconclusive: 20 µM [inhibitor, full curve].

Which Potency does the source give for Cc1ccccc1N1C(S)=C(C#N)C(=O)NC1c1cccs1 (stereo not drawn) here?
The Potency was inconclusive: 39.8 µM [inhibitor, single point].

Which Potency does the source give for CCOCCCNC(=O)CCn1nc(-c2ccc(Cl)cc2)ccc1=O here?
Its Potency is inconclusive: 1.41 µM [inhibitor, partial curve, poor fit].

Cc1ccc(-n2ncc(C(=O)NCc3ccco3)c2C2CCN(C(=O)OC(C)(C)C)CC2)c(C)c1 was tested. Which “activity, negative = inhibition” value did it give?
Its value is inactive: 25.9%.

Which Potency does the source give for O=C(O)c1ccc(Cl)c(NCc2cccnc2)c1 here?
Its Potency is inconclusive: 89.1 µM [inhibitor, single point].

For CN(c1ccc(F)cc1)S(=O)(=O)c1ccc2[nH]cc(C(=O)O)c(=O)c2c1, which Potency is on record?
The Potency was inconclusive: 112 µM [inhibitor, single point].

With CS(=O)(=O)N(CC(O)Cn1c2ccccc2c2ccccc21)c1cccc2ccccc12 (stereo not drawn) as the molecule, how does the Potency read?
The Potency was inconclusive: 15.8 µM [inhibitor, partial curve, poor fit].

For Cc1cccn2c(=O)c3cc(S(=O)(=O)c4ccc(F)cc4)c(=N)n(Cc4ccco4)c3nc12, which Potency is on record?
Its Potency is active: 11.2 µM.

For O=C(O)C(c1ccccc1)N1C(=O)/C(=C\c2ccc(O)c(O)c2)SC1=S (stereo not drawn), which Potency is on record?
The Potency was inconclusive: 10 µM [inhibitor, partial curve, poor fit].

Which Potency does the source give for COc1ccc(C(=O)CSc2ccc(-c3ccco3)nn2)cc1 here?
Its Potency is inconclusive: 89.1 µM [inhibitor, partial curve, poor fit].

How did the Potency turn out when O=c1nc2n(-c3ccccc3F)c3ccccc3cc-2c(=O)[nH]1 was run?
Its Potency is inconclusive: 28.2 µM [inhibitor, single point].

With COc1cc(OC)c(Nc2nc3ccc(C(=O)c4ccccc4)cc3n3c(C)nnc23)cc1Cl as the molecule, how does the “activity, negative = inhibition” value read?
Its value is inactive: 27.6%.

With O=C1CCC[C@@H]2C[C@@]3(C[C@@H]4CCN1[C@H]24)Nc1cc(Cl)ccc1NC3=NC1CCCCC1 as the molecule, how does the Potency read?
Its Potency is inconclusive: 44.7 µM [inhibitor, partial curve, poor fit].

How did the “activity, negative = inhibition” value turn out when Cn1cnnc1Sc1ccc(/C=C(\CCC(=O)O)c2nc3ccccc3s2)cc1[N+](=O)[O-] was run?
The value was inactive: 98%.

With CC1=Nc2ccccc2/C1=C/c1sc(=S)n(-c2cccc(C(=O)O)c2)c1O as the molecule, how does the Potency read?
The Potency was inconclusive: 44.7 µM [inhibitor, full curve, poor fit].

Which Potency does the source give for O=C1NC(=O)/C(=C/c2ccc(N3CCOCC3)o2)N1 here?
Its Potency is inconclusive: 39.8 µM [inhibitor, single point].

For CCOC(=O)C(=O)Cc1cccnn1, which Potency is on record?
Its Potency is inconclusive: 3.55 µM [inhibitor, full curve, poor fit].

With CCN(C(=O)c1cnc2ccc(C)cn2c1=O)c1ccccc1 as the molecule, how does the “activity, negative = inhibition” value read?
Its value is inactive: 3.23%.

How did the “activity, negative = inhibition” value turn out when CCOC(=O)C1CCN(C(c2cccc(F)c2)c2c(O)cc(C)n(CCOC)c2=O)CC1 (stereo not drawn) was run?
The value was inactive: -3.41%.

For CCSc1nc(-c2ccco2)ccc1C#N, which Potency is on record?
Its Potency is inconclusive: 15.8 µM [inhibitor, full curve, poor fit].

CC(=O)OCC1CC(COC(C)=O)C(COC(C)=O)CC1COC(C)=O (stereo not drawn) was tested. Which “activity, negative = inhibition” value did it give?
Its value is inactive: 3.58%.

For COc1ccc(-n2nc3c(c2NC(=O)COc2cccc(OC)c2)CS(=O)(=O)C3)cc1, which Potency is on record?
Its Potency is inconclusive: 28.2 µM [inhibitor, partial curve].
